# Out of some 53,000 sequences screened, about 3,700 (7%) were called active.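 Rule for the calls: active = gene knockdowns whose robust z-score for IL-1 alpha signal is at least 2 or at most -2, so actives lie on both sides; inactive = the rest.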 Some of the results follow.
# Test: Components of the Cytosolic LPS Sensing Pathway: Gene Identification via Genome-wide siRNA Screen;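 note: robust z of the log signal after scaling to non-targeting control siRNA wells of the plate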
# Details: RAW264.7 macrophages, IL-1a HTRF, actives lie on both sides, screened at 100 nM (by protocol), cells primed 5 h with Pam3CSK4 first
# How it was run: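 Cells (RAW264.7, 1×10^4 per well) were transfected with siRNA at 100 nM and cultured 48h at 37 degrees C. Pam3CSK4 was added for 5 hours; LipidA transfection followed for 24 hour. IL-1a was then measured by HTRF.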
row,Sequence,z-score
1,CCAGUUUACGUGGAAAAAATT against Cox4i1,inactive: -0.366
2,CCUUAUAAUUGACACUGAUTT against Toe1,inactive: 0.312
3,GCGAACGAGCCUUUAAGCUTT against Fnta,inactive: -0.156
4,GGUUGGAUGCUGAAGUAGATT against Gpr137c,inactive: 0.206
5,GCUGAUGAACGAAUACAACTT against Kcnk5,inactive: 1.25
6,GGGCUUCCAUCUUUCAUCCTT against Trex2,inactive: 1.2
7,GGCCAACAUCAUUGAGGCGTT against Eif2b2,inactive: -1.17
8,GGAGAUGUUAAGCAAGAAGTT against Chmp4b,inactive: -0.865
9,CGGAAUUGACCUAUUUGCATT against Mmp25,inactive: 1.84
10,GCUUUCACUAAUCAGUACATT against Setd5,inactive: -0.0813
11,GGAGGUUGUCAAGUCUCCATT against Tnfrsf8,inactive: -1.31
12,AUGGACCAAGGAAAAGUGUTT against Olfr951,inactive: 0.308
13,GAGGAAAGAAUAGACAAGATT against Rhox6,inactive: -1.95
14,GGAACAAAAACCAUUGUGATT against Gng7,inactive: -1.49
15,CCCAAAUGAUUGGAUCUGUTT against Cd40lg,inactive: 0.273
16,GGGACAUGGUCAUCACUAGTT against Clvs2,inactive: -1.71
17,GGAAAGCUUACAAAUAUGCTT against C1galt1c1,inactive: 0.457
18,GGCUGUACCAAUCUGACACTT against Pvalb,inactive: 0.318
19,GCAGAAGCGUGGCAUUGUATT against Ins2,inactive: 0.5
20,GCCAUAUAAGUGAAAAUCGTT against Gda,inactive: -0.188
21,GGAUUCUGAAGGAACUUAATT against Slc8a1,inactive: -0.283
22,GGUGGUUGUUGUCAAGGACTT against Rbm3,inactive: 0.737

row,Sequence,z-score
1,GCAUUACGUAAGAAUGGUUTT against Eif5a,inactive: -1.43
2,GGCUACACUGGAUAUUUUUTT against F12,inactive: 0.464
3,GGAGGGUCGGCUUAUAAUUTT against Adam6b,active: 2.16
4,GCUGAUCCCUUGAGUGAAUTT against Rbm18,inactive: -1.93
5,GGAAACAGCACAACAAACGTT against Adam26a,active: 2.93
6,GGUAGACCAGCUUAAGAAGTT against Gngt1,inactive: -0.0811
7,GGGUGUUGGAGUUUGCCAUTT against Nat8l,inactive: -0.23
8,GCUUAUGAGGUGUUGAGCGTT against Dnaja3,inactive: -0.22
9,GCCAUGAUGUAGAGGUAGGTT against Zfp33b,inactive: 0.721
10,GGCCUAAAUUGACAAACUUTT against Oga,inactive: 1.04
11,GAGAAGUGUCUUGGGAAACTT against Gchfr,inactive: -0.589
12,GGAACGAACUUACAGAGAUTT against Krt27,inactive: -1.77
13,GGCAAUGCACUGCUAUUAUTT against Olfr617,inactive: 0.192
14,GCUAUUGUGUAUUUUCCAATT against Slc43a2,inactive: 1.33
15,GGAGAACGUGUUCUUUCCUTT against Procr,inactive: -1.19
16,GGGACCAAAACCUGCAUUGTT against App,inactive: -0.318
17,GGAGCUGAAAAAACUGAAGTT against Pptc7,inactive: 1.66
18,GGACAUCUCCUGUCUGAAUTT against Timm50,inactive: 0.491
19,GGAGCUAAACUCCUUGAAGTT against Slc22a4,active: 2.07
20,GCAAGGAUGAAUCUAUAGATT against Pdgfrb,inactive: -0.0539
21,GGUUUUCCAAGGUGGGCAUTT against Rp1l1,inactive: 1.77
22,CCUUUUUGUGGAAGUCGUUTT against Car1,inactive: 0.0351

# Look-ups from above:
# Entry of GCCAUGAUGUAGAGGUAGGTT against Zfp33b under z-score: inactive: 0.721
# Entry of GGAGAACGUGUUCUUUCCUTT against Procr under z-score: inactive: -1.19

# Remaining list, next part

row,Sequence,z-score
1,CUAGCAGGUUCAGAAUUUUTT against Olfr330,inactive: -1.55
2,GGAGGGUCUCUUUAAGUUCTT against Prkd2,inactive: 1.35
3,GGUUUUGUGAGGAGGCCAGTT against Gm10413,inactive: -1.37
4,GGUGUACCAUAGAUGAUCGTT against Opcml,inactive: -1.05
5,CCCAGAAGCCUUAUCGUCUTT against Mzt1,active: 2.37
6,GGAGGUAAACAUAACUUAUTT against Ereg,inactive: 1.41
7,GGAUUUAUGGCAAGUUUCUTT against Ppp2r5e,inactive: 0.00387
8,GGUGACCAGCUCCAUUUCUTT against Ccn5,active: 2.61
9,GGAAAUCAUCUUUUCAGAUTT against Slc7a12,inactive: -0.443
10,GGACAUAACAUACAUCUCUTT against Sdf4,inactive: 1.12
11,GGCCAAGGACAUUAUAAAUTT against Scly,inactive: -0.585
12,GGAAUCAAAUGACUAAGAATT against Mcl1,inactive: 0.129
13,GGGUAACUAUUGGACUAACTT against Gabrq,inactive: -0.262
14,GGUAUAUUGCCAUAUGUAATT against Olfr731,inactive: -0.174
15,CCAGUAUGGCUUAAAGACCTT against Bglap3,inactive: -0.84
16,GGUAGUGAAUGAACUCUUUTT against Bcl2l1,inactive: -1.41
17,GGUUCUACUGGAGUCCUGGTT against Cd6,inactive: -1
18,GGUUAGGUCUAACCAUUGATT against A630005I04Rik,inactive: 0.639
19,GGUGGAAAACAACACCUUATT against Tarsl2,inactive: 0.755
20,GCCUCCAUUUCUUGGACGATT against Mpg,inactive: -0.627
21,GGAAACCAAGAUUUCUCAGTT against Tyro3,inactive: -0.405
22,GGCUGUGCAUUAUAUCCUUTT against Lhfpl1,inactive: 1.2

row,Sequence,z-score
1,GGCCUCUUUGGAUCUAAGCTT against Nupl1,inactive: 0.78
2,GCAACCAUCGAACUCAAGGTT against Smarca4,inactive: 1.08
3,GGAAGUCUCCUACAAUGCCTT against Paxip1,inactive: 0.12
4,CGAGAUUUGUAACAAGUCATT against Dr1,inactive: -1.5
5,GCGACGAAGAUGUCCUGUUTT against Plxna2,inactive: -1.75
6,GCUGAGCCGUGAGUUCAAUTT against Trp63,inactive: 0.372
7,GCCAUCUUAAGUUGUAACUTT against Fgfr3,inactive: 0.417
8,GGAUCCUUCAGCAUUCUUATT against Egr2,inactive: -0.476
9,CGUUCCAAGGGAGAACACATT against Dab1,inactive: 1.08
10,GGACUCGUUCCACUAUCAUTT against Naa20,inactive: 0.33
11,CCUCGAAUUUCAAUAUGCUTT against Ncam1,inactive: -0.672
12,GGCUCUGAAUAGUGGGCUGTT against Olfr974,inactive: 0.521
13,GGUAUUAACUUUGACAAUCTT against Ncoa5,inactive: -0.456
14,GGAGUUUCUGGUGUGAUCCTT against Fkbp9,inactive: 0.341
15,GGUUAAGGAGAAAUGUGAUTT against Mob3a,inactive: -0.0804
16,CCUACUCGUAUAAUCUUCUTT against Ago3,inactive: 0.496
17,GGCAGUGAAAGCAAAGCUGTT against Cldn7,inactive: -1.87
18,AUGCCUAUACAAUUCUGUGTT against Olfr1167,inactive: 0.0339
19,GCAGUUACACAUUUGAACATT against Msantd2,inactive: 1.62
20,GGUGGACACAGCUUAAAGCTT against Vmn1r237,inactive: 0.0057
21,GGACAUUUUGAACUGUUAUTT against Pkd2l1,inactive: 0.263
22,GGAGAAAAAGAGAUAAGGUTT against Ppp2r2b,inactive: -0.893

row,Sequence,z-score
1,GGUUAGUCGACAGAAACAATT against Poteg,inactive: -1.11
2,GGACAUUAUUUUCUUGUCATT against Skint3,inactive: -0.341
3,GCUACUCAGUCUUUACUAUTT against Telo2,active: -2.14
4,CCUUGACAACCAACAGAUUTT against Shc4,inactive: 0.432
5,GGAAAUCGUGCGUGGCUACTT against Phpt1,inactive: 1.57
6,GCACAAGCGAAGAAGUUUGTT against Ube2i,inactive: -0.0933
7,GGACUGAGAAAACUCCAAATT against Hmgxb3,inactive: -0.446
8,UUCCAGAAACUACCUGUGCTT against Adcy1,inactive: 0.694
9,GCCAAUUUUGAACCACUACTT against Itga8,inactive: -0.56
10,CCGACCAUCUGUGGAAAUATT against Samd5,inactive: 0.227
11,GGAGAACCCAUGUAACUGUTT against Tcl1b1,inactive: 0.11
12,CGUGUGUUCCGGAAACAGATT against Tnfrsf11b,inactive: -0.188
13,GCCUUAGGAUACUACUGUUTT against Map3k3,inactive: -0.136
14,GGGUUCUCCAAUGCUUACATT against Mrps23,inactive: -0.534
15,GCGUAGAGUCCUUUCGUCUTT against Krt10,inactive: 0.818
16,GCCACAUAGAUCGCAUGGUTT against Lox,inactive: -0.766
17,CCUUAUUGUGACAGAAGUATT against Tnc,inactive: -0.0884
18,GCUAAGAGUACAUUGUAACTT against Tmeff2,inactive: 0.0631
19,GGCAUUAUCGUGGUUGGCATT against Ntpcr,inactive: -1.97
20,GGAACAAUAUUGAUGAUGUTT against Pten,inactive: -1.05

# As a working copy, part of the list above:
row,Sequence,z-score
1,GCAUUACGUAAGAAUGGUUTT against Eif5a,inactive: -1.43
2,GGCUACACUGGAUAUUUUUTT against F12,inactive: 0.464

# Source: PubChem BioAssay AID1508600 (Functional Genomics Laboratory (NCATS/FGL), 2020)
